Data: publication PMC4561369
These are yes or no findings as the source states them, for the method shown. Binding seen in cells or lysates may run through a third protein. These calls come from enrichment with a bait or labelling near it, and not all partners need be listed.

Amino acid sequences for entries named in this document (tags omitted). Residues count along the entry.
UniProt Q61699: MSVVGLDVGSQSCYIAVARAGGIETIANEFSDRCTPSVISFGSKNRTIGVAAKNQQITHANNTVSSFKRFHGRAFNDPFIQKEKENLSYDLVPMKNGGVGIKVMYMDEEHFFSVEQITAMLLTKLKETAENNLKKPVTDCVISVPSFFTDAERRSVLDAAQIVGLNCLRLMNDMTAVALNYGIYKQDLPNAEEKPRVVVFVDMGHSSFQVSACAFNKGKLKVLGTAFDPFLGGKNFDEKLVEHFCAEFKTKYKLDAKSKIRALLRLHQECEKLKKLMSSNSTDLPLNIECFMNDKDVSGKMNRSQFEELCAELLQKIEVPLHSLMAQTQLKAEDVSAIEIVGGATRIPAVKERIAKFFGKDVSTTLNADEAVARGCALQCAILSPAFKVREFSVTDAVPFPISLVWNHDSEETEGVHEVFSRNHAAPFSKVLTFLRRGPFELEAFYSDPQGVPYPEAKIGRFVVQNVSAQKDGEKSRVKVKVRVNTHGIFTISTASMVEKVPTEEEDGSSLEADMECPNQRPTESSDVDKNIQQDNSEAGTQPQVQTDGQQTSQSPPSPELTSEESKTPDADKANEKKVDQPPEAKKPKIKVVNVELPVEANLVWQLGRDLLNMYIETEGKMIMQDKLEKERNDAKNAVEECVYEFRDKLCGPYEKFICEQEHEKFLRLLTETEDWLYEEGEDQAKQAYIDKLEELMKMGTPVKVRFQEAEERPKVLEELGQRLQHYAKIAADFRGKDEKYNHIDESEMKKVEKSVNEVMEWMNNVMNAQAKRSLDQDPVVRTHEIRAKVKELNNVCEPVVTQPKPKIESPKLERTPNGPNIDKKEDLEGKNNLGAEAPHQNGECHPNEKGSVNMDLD
UniProt P62334: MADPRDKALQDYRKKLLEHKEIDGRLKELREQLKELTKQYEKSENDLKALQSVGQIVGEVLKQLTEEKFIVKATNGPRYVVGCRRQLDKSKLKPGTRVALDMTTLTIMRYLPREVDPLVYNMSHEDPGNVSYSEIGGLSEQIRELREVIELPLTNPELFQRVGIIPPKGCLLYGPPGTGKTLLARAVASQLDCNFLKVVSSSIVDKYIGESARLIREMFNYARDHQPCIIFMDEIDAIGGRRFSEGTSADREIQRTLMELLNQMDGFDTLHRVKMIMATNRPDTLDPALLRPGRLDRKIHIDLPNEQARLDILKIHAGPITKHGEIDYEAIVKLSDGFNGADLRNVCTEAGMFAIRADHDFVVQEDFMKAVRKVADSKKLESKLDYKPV
UniProt Q03265, residues 44-553: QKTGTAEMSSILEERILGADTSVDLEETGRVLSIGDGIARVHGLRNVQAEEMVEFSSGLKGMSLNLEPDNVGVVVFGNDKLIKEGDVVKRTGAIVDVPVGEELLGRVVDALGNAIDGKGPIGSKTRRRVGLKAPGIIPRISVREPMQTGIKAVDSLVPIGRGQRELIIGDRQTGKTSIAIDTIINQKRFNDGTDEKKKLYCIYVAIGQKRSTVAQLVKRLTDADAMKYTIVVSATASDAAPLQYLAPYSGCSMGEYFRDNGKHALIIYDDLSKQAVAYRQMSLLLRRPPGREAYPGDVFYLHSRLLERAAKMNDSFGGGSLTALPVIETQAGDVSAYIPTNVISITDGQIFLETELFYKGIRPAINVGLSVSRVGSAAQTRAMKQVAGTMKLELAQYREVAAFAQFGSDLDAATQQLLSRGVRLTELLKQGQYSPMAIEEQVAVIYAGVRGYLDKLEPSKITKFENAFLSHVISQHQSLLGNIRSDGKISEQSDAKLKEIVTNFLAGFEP
UniProt Q80TP3: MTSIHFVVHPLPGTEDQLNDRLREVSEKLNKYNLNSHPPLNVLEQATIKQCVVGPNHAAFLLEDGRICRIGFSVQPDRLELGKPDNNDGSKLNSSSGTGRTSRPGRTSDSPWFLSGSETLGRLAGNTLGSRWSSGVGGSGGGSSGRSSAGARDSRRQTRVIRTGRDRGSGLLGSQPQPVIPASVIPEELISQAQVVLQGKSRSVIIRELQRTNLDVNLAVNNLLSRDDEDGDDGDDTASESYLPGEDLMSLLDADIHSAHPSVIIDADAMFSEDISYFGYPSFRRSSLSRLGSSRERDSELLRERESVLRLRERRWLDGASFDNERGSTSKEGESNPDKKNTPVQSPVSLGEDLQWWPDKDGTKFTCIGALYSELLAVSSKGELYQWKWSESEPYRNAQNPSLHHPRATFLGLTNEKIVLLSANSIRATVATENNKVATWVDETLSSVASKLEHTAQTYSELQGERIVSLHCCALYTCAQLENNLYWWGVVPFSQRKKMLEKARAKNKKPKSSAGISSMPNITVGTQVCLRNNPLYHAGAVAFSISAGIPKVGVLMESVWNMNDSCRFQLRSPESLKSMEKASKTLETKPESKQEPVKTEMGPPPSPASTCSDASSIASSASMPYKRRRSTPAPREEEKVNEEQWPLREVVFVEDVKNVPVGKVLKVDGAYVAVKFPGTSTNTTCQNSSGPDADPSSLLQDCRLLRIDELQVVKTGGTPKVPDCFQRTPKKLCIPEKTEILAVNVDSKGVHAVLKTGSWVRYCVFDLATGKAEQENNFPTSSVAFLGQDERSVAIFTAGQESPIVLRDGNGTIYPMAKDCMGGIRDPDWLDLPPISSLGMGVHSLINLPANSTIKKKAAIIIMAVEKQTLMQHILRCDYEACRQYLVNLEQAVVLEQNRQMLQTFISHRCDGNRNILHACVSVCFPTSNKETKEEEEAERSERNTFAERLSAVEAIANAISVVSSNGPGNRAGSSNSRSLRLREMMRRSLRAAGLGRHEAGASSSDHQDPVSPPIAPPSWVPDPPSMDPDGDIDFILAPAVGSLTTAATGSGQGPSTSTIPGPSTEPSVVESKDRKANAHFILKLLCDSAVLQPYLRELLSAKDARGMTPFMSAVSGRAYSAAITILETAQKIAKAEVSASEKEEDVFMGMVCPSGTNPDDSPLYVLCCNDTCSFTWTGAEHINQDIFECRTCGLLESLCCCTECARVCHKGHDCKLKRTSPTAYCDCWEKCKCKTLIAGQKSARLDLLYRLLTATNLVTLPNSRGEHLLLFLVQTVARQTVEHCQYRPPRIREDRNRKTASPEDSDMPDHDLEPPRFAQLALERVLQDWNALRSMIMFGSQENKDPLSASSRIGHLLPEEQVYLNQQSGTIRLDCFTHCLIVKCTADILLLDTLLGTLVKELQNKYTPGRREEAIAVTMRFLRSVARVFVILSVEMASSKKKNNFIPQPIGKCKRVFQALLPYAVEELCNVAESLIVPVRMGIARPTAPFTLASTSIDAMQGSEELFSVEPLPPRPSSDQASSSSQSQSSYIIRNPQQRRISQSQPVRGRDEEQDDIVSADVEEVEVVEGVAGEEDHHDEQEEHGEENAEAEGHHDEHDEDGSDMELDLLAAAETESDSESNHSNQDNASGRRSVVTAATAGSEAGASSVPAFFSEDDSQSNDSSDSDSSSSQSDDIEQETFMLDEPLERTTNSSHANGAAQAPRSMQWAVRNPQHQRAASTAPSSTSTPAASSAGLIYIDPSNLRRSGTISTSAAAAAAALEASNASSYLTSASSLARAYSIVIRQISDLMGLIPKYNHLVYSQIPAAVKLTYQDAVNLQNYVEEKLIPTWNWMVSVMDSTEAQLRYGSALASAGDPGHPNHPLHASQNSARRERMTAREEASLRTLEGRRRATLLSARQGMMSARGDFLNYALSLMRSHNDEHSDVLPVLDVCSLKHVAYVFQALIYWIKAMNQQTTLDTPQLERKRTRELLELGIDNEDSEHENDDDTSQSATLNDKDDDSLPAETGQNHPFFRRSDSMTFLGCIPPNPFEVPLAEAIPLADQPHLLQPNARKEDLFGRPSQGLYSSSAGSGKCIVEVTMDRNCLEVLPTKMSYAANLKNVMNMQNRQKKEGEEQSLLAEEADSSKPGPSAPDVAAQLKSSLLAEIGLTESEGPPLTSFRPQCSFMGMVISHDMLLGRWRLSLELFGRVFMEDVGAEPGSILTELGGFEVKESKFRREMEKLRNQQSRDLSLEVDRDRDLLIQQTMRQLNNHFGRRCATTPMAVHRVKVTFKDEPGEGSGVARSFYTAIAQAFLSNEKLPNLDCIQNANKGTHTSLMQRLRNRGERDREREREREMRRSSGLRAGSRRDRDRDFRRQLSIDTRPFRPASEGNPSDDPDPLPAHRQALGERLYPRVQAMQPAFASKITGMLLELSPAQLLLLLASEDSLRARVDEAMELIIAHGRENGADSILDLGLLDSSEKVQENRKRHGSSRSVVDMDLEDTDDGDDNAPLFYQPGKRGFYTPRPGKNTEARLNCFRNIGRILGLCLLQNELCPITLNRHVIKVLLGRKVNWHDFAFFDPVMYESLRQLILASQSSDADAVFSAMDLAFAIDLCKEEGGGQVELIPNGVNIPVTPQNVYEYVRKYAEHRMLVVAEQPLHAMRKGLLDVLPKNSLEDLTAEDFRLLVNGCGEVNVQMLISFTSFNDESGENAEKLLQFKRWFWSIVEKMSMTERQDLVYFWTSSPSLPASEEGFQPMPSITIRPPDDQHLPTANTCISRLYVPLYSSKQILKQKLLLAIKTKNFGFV
UniProt P62962: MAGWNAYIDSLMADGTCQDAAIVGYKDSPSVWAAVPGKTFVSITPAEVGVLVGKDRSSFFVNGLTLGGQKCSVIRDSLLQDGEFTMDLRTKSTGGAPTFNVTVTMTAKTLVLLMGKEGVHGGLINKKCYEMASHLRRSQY
UniProt Q61990: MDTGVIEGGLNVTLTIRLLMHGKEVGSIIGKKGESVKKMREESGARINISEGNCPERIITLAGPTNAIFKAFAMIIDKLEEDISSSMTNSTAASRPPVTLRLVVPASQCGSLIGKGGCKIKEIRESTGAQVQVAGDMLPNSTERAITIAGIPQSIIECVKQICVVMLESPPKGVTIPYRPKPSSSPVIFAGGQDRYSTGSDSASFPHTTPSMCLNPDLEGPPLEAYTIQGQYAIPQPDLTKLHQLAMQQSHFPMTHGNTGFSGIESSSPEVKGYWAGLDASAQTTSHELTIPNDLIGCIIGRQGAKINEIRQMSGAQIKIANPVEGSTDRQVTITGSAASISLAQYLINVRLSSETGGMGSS
UniProt Q9D832: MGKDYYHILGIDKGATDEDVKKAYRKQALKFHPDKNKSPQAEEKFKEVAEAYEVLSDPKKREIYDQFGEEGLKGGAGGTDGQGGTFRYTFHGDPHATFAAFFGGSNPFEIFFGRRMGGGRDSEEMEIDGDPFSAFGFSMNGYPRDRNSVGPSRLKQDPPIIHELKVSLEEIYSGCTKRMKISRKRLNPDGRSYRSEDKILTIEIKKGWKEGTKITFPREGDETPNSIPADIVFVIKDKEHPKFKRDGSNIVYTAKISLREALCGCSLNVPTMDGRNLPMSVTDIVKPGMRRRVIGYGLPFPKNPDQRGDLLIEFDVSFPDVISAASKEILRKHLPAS
UniProt P60335: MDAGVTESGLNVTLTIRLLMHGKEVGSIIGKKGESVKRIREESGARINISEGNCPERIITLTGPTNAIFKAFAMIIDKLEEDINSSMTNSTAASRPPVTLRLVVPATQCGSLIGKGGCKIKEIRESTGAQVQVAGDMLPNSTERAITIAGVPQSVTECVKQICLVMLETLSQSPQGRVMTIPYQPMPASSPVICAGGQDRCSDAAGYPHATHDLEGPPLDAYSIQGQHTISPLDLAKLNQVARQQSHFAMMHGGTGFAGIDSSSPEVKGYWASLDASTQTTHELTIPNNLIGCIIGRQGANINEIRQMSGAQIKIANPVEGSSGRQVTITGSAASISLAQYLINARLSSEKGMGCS
UniProt Q8BMS1, residues 37-763: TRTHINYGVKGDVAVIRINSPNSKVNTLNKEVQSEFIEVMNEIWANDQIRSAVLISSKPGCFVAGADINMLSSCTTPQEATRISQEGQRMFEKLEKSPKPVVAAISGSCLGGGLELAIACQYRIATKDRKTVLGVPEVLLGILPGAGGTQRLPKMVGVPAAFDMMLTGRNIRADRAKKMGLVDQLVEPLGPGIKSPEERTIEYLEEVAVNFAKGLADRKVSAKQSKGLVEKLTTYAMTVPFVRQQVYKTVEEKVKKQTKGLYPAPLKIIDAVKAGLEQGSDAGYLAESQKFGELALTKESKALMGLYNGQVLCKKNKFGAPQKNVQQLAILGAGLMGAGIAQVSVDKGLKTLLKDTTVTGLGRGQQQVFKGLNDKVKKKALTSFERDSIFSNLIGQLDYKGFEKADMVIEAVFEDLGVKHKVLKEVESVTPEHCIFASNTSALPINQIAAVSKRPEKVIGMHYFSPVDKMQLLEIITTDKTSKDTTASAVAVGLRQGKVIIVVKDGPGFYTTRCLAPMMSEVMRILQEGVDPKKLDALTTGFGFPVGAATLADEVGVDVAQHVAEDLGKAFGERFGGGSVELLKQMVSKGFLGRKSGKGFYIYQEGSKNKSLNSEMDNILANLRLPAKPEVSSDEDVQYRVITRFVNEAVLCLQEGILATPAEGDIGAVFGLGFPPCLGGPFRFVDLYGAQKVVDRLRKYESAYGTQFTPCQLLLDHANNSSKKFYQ

Biological target: mutant p53 (mutp53) R172H protein of Trp53^R172H/R172H knock-in mice (mouse (endogenous in tissues of Trp53^R172H/R172H mice)) (UniProt P02340)
Experiment: affinity purification with mass spectrometry; lysates of thymic lymphomas of Trp53^R172H/R172H mice (n = 3); IP with anti-p53 (FL393) beads, eluted with 0.1 M glycine, bands of a 4–15% SDS gel analysed by LC-MS/MS; normal thymus as control

Iqgap1 (from UniProt Q9JKF1 1-1657)
binding: binds

Hsp90b1 (from UniProt P08113 22-802)
binding: binds

Hsph1 (from UniProt Q61699 1-858)
binding: binds

Eprs (from UniProt Q8CGC7 1-1512)
binding: binds

Sar1a (from UniProt P36536 1-198)
binding: binds

Ctsb (from UniProt P10605)
binding: binds

Rfc5 (from UniProt Q9D0F6 1-339)
binding: binds

Psmc6 (from UniProt P62334 1-389)
binding: binds

Atp5a1 (from UniProt Q03265 44-553)
binding: binds

Ubr5 (from UniProt Q80TP3 1-2792)
binding: binds

Cad (from UniProt B2RQC6 1-2225)
binding: binds

Pfn1 (from UniProt P62962 1-140)
binding: binds

Pcbp2 (from UniProt Q61990 1-362)
binding: binds

Pabpc4 (from UniProt Q6PHQ9 1-660)
binding: binds

Hspd1 (from UniProt P63038 27-573)
binding: binds

Dnajb4 (from UniProt Q9D832 1-337)
binding: binds

Pcbp1 (from UniProt P60335 1-356)
binding: binds

Bat3 (from UniProt Q9Z1R2 1-1154)
binding: binds

Hadha (from UniProt Q8BMS1 37-763)
binding: binds

Atp5b (from UniProt P56480 47-529)
binding: binds

Stip1 (from UniProt Q60864 1-543)
binding: binds

Hspa2 (from UniProt P17156 1-633)
binding: binds

B1: Lcp1 (protein, UniProt Q61233 1-627)
chain: MARGSVSDEEMMELREAFAKVDTDGNGYISCNELNDLFKAACLPLPGYRVREITENLMATGDLDQDGKISFDEFIKVFHGLKSTEVAKTFRKAINKKEGICAIGGTSEQSSVGTQHSYSEEEKYAFVNWINKALENDPDCRHVIPMNPNTDDLFNAVGDGIVLCKMINLSVPDTIDERTINKKKLTPFTIQENLNLALNSASAIGCHVVNIGAEDLKEGKPYLVLGLLWQVIKIGLFADIELSRNEALIALLREGESLEDLMKLSPEELLLRWANYHLENAGCTKITNFSTDIKDSKAYYHLLEQVAPKGDEEGIPAVVIDMSGLREKDDIQRAECMLQQAERLGCRQFVTATDVVRGNPKLNLAFIANLFNKYPALHKPENQDIDWGALEGETREERTFRNWMNSLGVNPRVNHLYSDLSDALVIFQLYEKIKVPVDWNRVNKPPYPKLGGNMKKLENCNYAVDLGKNQAKFSLVGIAGQDLNEGNRTLTLALVWQLMRRYTLNILEDIGGGQKVNDDIIVNWVNTTLKEAQKSSSIASFKDPKISTSLPVLDLIDAIQPGSINYDLLKTENLDDEEKLNNAKYAISMARKIGARVYALPEDLVEVNPKMVMTVFACLMGKGMKRV
binding: binds

B2: Fam49b (protein, UniProt Q921M7 1-324)
chain: MGNLLKVLTCTDLEQGPNFFLDFENAQPTESEKEIYNQVNVVLKDAEGILEDLQSYRGAGHEIREAIQHPADEKLQEKAWGAVVPLVGKLKKFYEFSQRLEAALRGLLGALTSTPYSPTQHLEREQALAKQFAEILHFTLRFDELKMTNPAIQNDFSYYRRTLSRMRINNVPAEGENEVNNELANRMSLFYAEATPMLKTLSDATTKFVSENKNLPIENTTDCLSTMASVCRVMLETPEYRSRFTNEETVSFCLRVMVGVIILYDHVHPVGAFAKTSKIDMKGCIKVLKDQPPNSVEGLLNALRYTTKHLNDETTSKQIRSMLQ
binding: binds

B3: Khsrp (protein, UniProt Q3U0V1 1-748)
chain: MSDYNTGGPPPGPPPPAGGGGGAAGAGGGPPPGPPGAGDRGGGGPGGGGPGGGGASGGPSQPPGGGGPGIRKDAFADAVQRARQIAAKIGGDAATTVNNNTPDFGFGGQKRQLEDGDQPDSKKLASQGDSIGSQLGPIHPPPRTSMTEEYRVPDGMVGLIIGRGGEQINKIQQDSGCKVQISPDSGGLPERSVSLTGAPESVQKAKMMLDDIVSRGRGGPPGQFHDNANGGQNGTVQEIMIPAGKAGLVIGKGGETIKQLQERAGVKMILIQDGSQNTNVDKPLRIIGDPYKVQQACEMVMDILRERDQGGFGDRNEYGSRVGGGIDVPVPRHSVGVVIGRSGEMIKKIQNDAGVRIQFKQDDGTGPEKIAHIMGPPDRCEHAARIINDLLQSLRSGPPGPPGAPGMPPGGRGRGRGQGNWGPPGGEMTFSIPTHKCGLVIGRGGENVKAINQQTGAFVEISRQLPPNGDPNFKLFVIRGSPQQIDHAKQLIEEKIEGPLCPVGPGPGGPGPAGPMGPFNPGPFNQGPPGAPPHAGGPPPHQYPPQGWGNTYPQWQPPAPHDPNKAAAAATDPNAAWAAYYSHYYQQPPGPVPGPAPAPAAPPAQGEPPQPPPTGQSDYTKAWEEYYKKIGQQPQQPGAPPQQDYTKAWEEYYKKQAQVATGGGPGAPPGSQPDYSAAWAEYYRQQAAYYGQTPGPGGPQPPPTQQGQQQASGNCHPPPPPFSFQPPATVHPALVGSAGNPFPCGVCP
binding: binds

B4: Ifi47 (protein, UniProt Q61635 1-420)
chain: MDQFISAFLKGASENSFQQLAKEFLPQYSALISKAGGMLSPETLTGIHKALQEGNLSDVMIQIQKAISAAENAILEVAVIGQSGTGKSSFINALRGLGHEADESADVGTVETTMCKTPYQHPKYPKVIFWDLPGTGTPNFHADAYLDQVGFANYDFFIIISSSRFSLNDALLAQKIKDAGKKFYFVRTKVDSDLYNEQKAKPIAFKKEKVLQQIRDYCVTNLIKTGVTEPCIFLISNLDLGAFDFPKLEETLLKELPGHKRHMFALLLPNISDASIELKKHFLREKIWLEALKSAAVSFIPFMTFFKGFDLPEQEQCLKDYRSYFGLDDQSIKEIAEKLGAPLADIKGELKCLDFWSLVKDNSIIAQATSAAEAFCAVKGGPESSAFQALKVYYRRTQFLNIVVDDAKHLLRKIETVNVA
binding: binds

B5: Cse1l (protein, UniProt Q9ERK4 1-971)
chain: MELSDANLQTLTEYLKKTLDPDPAIRRPAEKFLESVEGNQNYPLLLLTLLEKSQDNVIKVCASVTFKNYIKRNWRIVEDEPNKICEADRVAIKANIVHLMLSSPEQIQKQLSDAISIIGREDFPQKWPDLLTEMVNRFQSGDFHVINGVLRTAHSLFKRYRHEFKSNELWTEIKLVLDAFALPLTNLFKATIELCSTHANDASALRILFSSLILISKLFYSLNFQDLPEFFEDNMETWMNNFHTLLTLDNKLLQTDDEEEAGLLELLKSQICDNAALYAQKYDEEFQRYLPRFVTAIWNLLVTTGREVKYDLLVSNAIQFLASVCERPHYKNLFEDQNTLTSICEKVIVPNMEFRAADEEAFEDNSEEYIRRDLEGSDIDTRRRAACDLVRGLCKFFEGPVTGIFSGYVNSMLQEYAKNPSVNWKHKDAAIYLVTSLASKAQTQKHGITQANELVNLTEFFVNHILPDLKSNNVNEFPVLKADGIKYIMIFRNQVPKEHLLVSIPLLISHLEAESIVVHTYAAHALERLFTMRGSNNTTLFTAAEIAPFVEILLTNLFKALTLPGSSENEYIMKAIMRSFSLLQEAIIPYIPTLITQLTQKLLAVSKNPSKPHFNHYMFEAICLSIRITCKANPAAVVNFEEALFLVFTEILQNDVQEFIPYVFQVMSLLLETHKNDIPSSYMALFPHLLQPVLWERTGNIPALVRLLQAFLERGSSTIATAAADKIPGLLGVFQKLIASKANDHQGFYLLNSIIEHMPPESVDQYRKQIFILLFQRLQNSKTTKFIKSFLVFINLYCIKYGALALQEIFDGIQPKMFGMVLEKIIIPEIQKVSGNVEKKICAVGITKLLTECPPMMDTEYTKLWTPLLQSLIGLFELPEDDSIPDEEHFIDIEDTPGYQTAFSQLAFAGKKEHDPVGQMVNNPKIHLAQSLHKLSTACPGRVPSMVSTSLNAEALQYLQGYLQAASVTLL
binding: binds

B6: Ipo5 (protein, UniProt Q8BKC5 1-1097)
chain: MAAAAAEQQQFYLLLGNLLSPDNVVRKQAEETYENIPGRSKITFLLQAIRNTTAAEEARQMAAVLLRRLLSSAFDEVYPALPSDVQTAIKSELLMIIQMETQSSMRKKICDIAAELARNLIDEDGNNQWPEGLKFLFDSVSSQNMGLREAALHIFWNFPGIFGNQQQHYLDVIKRMLVQCMQDQEHPSIRTLSARATAAFILANEHNVALFKHFADLLPGFLQAVNDSCYQNDDSVLKSLVEIADTVPKYLRPHLEATLQLSLKLCGDTNLNNMQRQLALEVIVTLSETAAAMLRKHTSLIAQTIPQMLAMMVDLEEDEDWANADELEDDDFDSNAVAGESALDRMACGLGGKLVLPMIKEHIMQMLQNPDWKYRHAGLMALSAIGEGCHQQMEGILNEIVNFVLLFLQDPHPRVRYAACNAVGQMATDFAPGFQKKFHEKVIAALLQTMEDQGNQRVQAHAAAALINFTEDCPKSLLIPYLDNLVKHLHSIMVLKLQELIQKGTKLVLEQVVTSIASVADTAEEKFVPYYDLFMPSLKHIVENAVQKELRLLRGKTIECISLIGLAVGKEKFMQDASDVMQLLLKTQTDFNDMEDDDPQISYMISAWARMCKILGKEFQQYLPVVMGPLMKTASIKPEVALLDTQDMENMSDDDGWEFVNLGDQQSFGIKTAGLEEKSTACQMLVCYAKELKEGFVEYTEQVVKLMVPLLKFYFHDGVRVAAAESMPLLLECARVRGPEYLTQMWHFMCDALIKAIGTEPDSDVLSEIMHSFAKCIEVMGDGCLNNEHFEELGGILKAKLEEHFKNQELRQVKRQDEDYDEQVEESLQDEDDNDVYILTKVSDILHSIFSSYKEKVLPWFEQLLPLIVNLICPQRPWPDRQWGLCIFDDIVEHCSPASFKYAEYFISPMLQYVCDNSPEVRQAAAYGLGVMAQFGGDNYRPFCTDALPLLVRVIQAPEAKTKENVNATENCISAVGKIMKFKPDCVNVEEVLPHWLSWLPLHEDKEEAVQTFSYLCDLIESNHPIVLGPNNTNLPKIFSIIAEGEMHEAIKHEDPCAKRLANVVRQVQTSGGLWTECIAQLSPEQQAAIQELLNSA
binding: binds

B7: Hspbp1 (protein, UniProt Q99P31 1-357)
chain: MADKGSGGSRLPLALPPASQGCSSGGSGSSAGGSGNPRPPRNLQGLLQMAITAGSQEPDPPPEPMSEERRQWLQEAMSAAFRGQREEVEQMKNCLRVLSQATPAMAGEAELATDQQEREGALELLADLCENMDNAADFCQLSGMHLLVGRYLEAGAAGLRWRAAQLIGTCSQNVAAIQEQVLGLGALRKLLRLLDRDSCDTVRVKALFAISCLVREQEAGLLQFLRLDGFSVLMRAMQQQVQKLKVKSAFLLQNLLVGHPEHKGTLCSMGMVQQLVALVRTEHSPFHEHVLGALCSLVTDFPQGVRECREPELGLEELLRHRCQLLQQREEYQEELEFCEKLLQTCFSSPTDDSMDR
binding: binds
